{
  "source": "patent US8722649B2",
  "about": "“Alpha-chloro and alpha-bromo phosphonate analogs of lysophosphatidic acid and methods of making and using thereof” (University of Utah Research Foundation, priority 2007, dated 2014)",
  "key": {"[1]": {"molecular_target": "T1, recombinant ATX-HA (Homo sapiens, UniProt Q13822)", "T1 construct": "HA", "test": "Autotaxin assay (FS-3 hydrolysis)", "format": "biochemical", "experimental": "Autotaxin Assay. This assay utilizes FS-3 (Echelon Biosciences, Inc. Salt Lake City, Utah) as substrate and recombinant ATX-HA. For analysis, 50 μl of ATX-HA (0.25 μg) in assay buffer (Tris 50 mM, NaCl 140 mM, KCl 5mM, CaCl2 1 mM, MgCl2 1 mM, pH 8.0) was mixed with 25 μl of FS-3 (1 μM final concentration in assay buffer) and 25 μl of test compound dissolved in assay buffer containing 1:1.5 bovine serum albumin in 96-well plate. FS-3 fluorescence was monitored using FLEXstation fluorescence plate reader at a time zero and after 2 hours of incubation at 37° C. at excitation and emission wavelengths of 485 nm and 538 nm, respectively. Data was normalized to the corresponding vehicle control and the mean±standard deviation of triplicate wells were expressed as percent ATX inhibition. IC50, and Ki values were calculated as described."}, "[2]": {"system": "MDA-MB-231 cells", "test": "Scratch wound healing migration assay", "format": "cell-based", "settings": "10 and 40 μM, 24 h", "experimental": "Inhibition of migration. MDA-MB-231 cells were plated in triplicate into six-well plates at a concentration of 3×10^5 cells per well. Approximately 48 hours later, the confluent cells were carefully scratched using sterile pipette tips. Nonadherent cells and cellular debris were removed by washing with PBS. Fresh medium with or without various concentrations of BrP-LPA 1, syn-BrP-LPA 1a, or anti-BrP-LPA 1b (1-100 μM) were added to the wounded monolayers. Cells were observed under the microscope and digitally photographed at different times. Inhibition of migration was assessed when the wound in the control was closed and quantified by using ImageJ."}, "[3]": {"molecular_target": "T2, human LPA4 (Homo sapiens, UniProt Q99677)", "T2 construct": "expressed in transfected cells", "test": "Ca2+ mobilization assay, LPA4 in CHO cells", "format": "cell-based", "settings": "agonist/antagonist in words", "experimental": "(§1) Receptor activation using Ca^2+ mobilization assay for diastereomers of 1 (also represented as 19b). The rat hepatoma (RH7777) cell lines individually expressing either LPA1, LPA2, LPA3 or LPA5 receptors and Chinese hamster ovary (CHO) cell line were analyzed to examine agonism and antagonism. […] CHO cells stably expressing either vector or LPA4 were kindly gifted from Dr. Shimizu (University of Tokyo, Tokyo, Japan).\nStable transformants of LPA4. CHO cells stably expressing either vector or LPA4 were plated on non-coated 96 well plates at a density of 4×10^4 cells/well and cultured overnight. The following day, cells were loaded with Fura-2 AM for 1 h in modified Krebs buffer containing 2% (v/v) pluronic acid and 2.5 mM probenecid.\nAfter incubating the cells with Fura-2 AM, the cells were rinsed with Krebs buffer and changes in the intracellular Ca^2+ concentration were monitored by determining the ratio of emitted light intensities at 520 nm in response to excitation at 340 and 380 nm using FLEXstation II (Molecular Devices, Sunnyvale, Calif.). Each well was monitored for 80-120 sec. For testing agonist activity of the compounds, the test compounds were added automatically after 15 sec of baseline measurement. […] Each test was performed in quadruplicate. EC50, IC50, and Ki values were calculated by fitting a sigmoid function to data points with the nonlinear curve-fitting feature of KaleidaGraph (Synergy Software, Essex Junction, Vt.).\nReceptor activation using Ca^2+ mobilization assay. The assay for mobilization of intracellular Ca^2+ was performed as described. Briefly, rat hepatoma RH7777 cells stably expressing human LPA1, LPA2, or LPA3, and CHO cells stably expressing LPA4, were loaded with Fura-2 AM (Molecular Probes). Using a FLEXStation (Molecular Devices, Sunnyvale, Calif.), changes in intracellular Ca^2+ concentration were monitored. Ligand-induced changes in fluorescence were monitored for 80-120 seconds. Ca^2+ transients were quantified automatically by calculating the difference between maximum and baseline ratio values for each sample. […] Each test was performed in quadruplicate. EC50, IC50, and Ki values were calculated as described. The ligand properties of the compounds were evaluated using Ca^2+ mobilization assay for assessing the activation/inhibition of LPA1, LPA2, and LPA3 expressed in RH7777 cells and LPA4 expressed in CHO cells."}, "[4]": {"molecular_target": "T3, human LPA2 (Homo sapiens, UniProt Q9HBW0)", "T3 construct": "expressed in transfected cells", "test": "Ca2+ mobilization assay, LPA2", "format": "cell-based", "settings": "agonist/antagonist in words", "experimental": "as §1\nStable transformants of LPA1/2/3 receptors. RH7777 cells stably expressing each receptor were plated onto poly-L-lysine (PLL) (0.1 mg/mL)-coated black-wall clear-bottom 96-well plates (Corning Incorporated Life Sciences, Acton, Mass.) at a density of 5×10^4 cells/well and cultured overnight. The following day, the culture medium was replaced with modified Krebs buffer (120 mM NaCl, 5 mM KCl, 0.62 mM MgSO4, 1.8 mM CaCl2, 10 mM HEPES, 6 mM glucose, pH 7.4), and the cells were serum starved for 6 h. […]\nAfter incubating the cells with Fura-2 AM, the cells were rinsed with Krebs buffer and changes in the intracellular Ca^2+ concentration were monitored by determining the ratio of emitted light intensities at 520 nm in response to excitation at 340 and 380 nm using FLEXstation II (Molecular Devices, Sunnyvale, Calif.). Each well was monitored for 80-120 sec. […] EC50, IC50, and Ki values were calculated by fitting a sigmoid function to data points with the nonlinear curve-fitting feature of KaleidaGraph (Synergy Software, Essex Junction, Vt.).\nReceptor activation using Ca^2+ mobilization assay. […] Using a FLEXStation (Molecular Devices, Sunnyvale, Calif.), changes in intracellular Ca^2+ concentration were monitored. Ligand-induced changes in fluorescence were monitored for 80-120 seconds. Ca^2+ transients were quantified automatically by calculating the difference between maximum and baseline ratio values for each sample. […] EC50, IC50, and Ki values were calculated as described. The ligand properties of the compounds were evaluated using Ca^2+ mobilization assay for assessing the activation/inhibition of LPA1, LPA2, and LPA3 expressed in RH7777 cells and LPA4 expressed in CHO cells."}, "[5]": {"molecular_target": "T4, human LPA5 (Homo sapiens, UniProt Q9H1C0)", "T4 construct": "expressed in transfected cells; host or cells: rat hepatoma RH7777 cells, transient (Effectene)", "test": "Ca2+ mobilization assay, LPA5 transiently transfected RH7777 cells", "format": "cell-based", "settings": "agonist/antagonist in words", "experimental": "as §1\nTransient transfection of LPA5. […]\nAfter incubating the cells with Fura-2 AM, the cells were rinsed with Krebs buffer and changes in the intracellular Ca^2+ concentration were monitored by determining the ratio of emitted light intensities at 520 nm in response to excitation at 340 and 380 nm using FLEXstation II (Molecular Devices, Sunnyvale, Calif.). Each well was monitored for 80-120 sec. […] To determine antagonist properties, varying concentrations of the compounds were mixed with a constant concentration of LPA and responses were monitored. […] EC50, IC50, and Ki values were calculated by fitting a sigmoid function to data points with the nonlinear curve-fitting feature of KaleidaGraph (Synergy Software, Essex Junction, Vt.)."}},
  "note": "Entries after “also recorded” stand apart in the source; their conditions may differ. At least one structure is not confirmed: it was looked up by name or label, or the drawing left a doubt.",
  "data": [
    {"smiles": "CCCCCCCCCCCCCCCC(=O)OC[C@@H](O)CC(Br)P(=O)(O)O", "note": "(mixture of isomers) [Compound 1, [1-Bromo-3(S)-hydroxyl-4-(palmitoyloxy)butyl]-phosphonate]", "values": [
      {"measurement": "ATX inhibition in words", "setting": "[1]", "value": "potent inhibition"},
      {"measurement": "MDA-MB-231 cell migration in words", "setting": "[2]", "value": "intermediate inhibition of cell migration"},
      {"measurement": "LPA4 ligand type", "setting": "[3]", "value": "modest inhibition; also recorded: Partial Antagonist"},
      {"measurement": "LPA4 ligand type", "setting": "[3]; listed as 19b", "value": "LPA4 antagonists"},
      {"measurement": "LPA2 ligand type", "setting": "[4]", "value": "submicromolar potency; also recorded: Antagonist"},
      {"measurement": "LPA5 ligand type", "setting": "[5]", "value": "weak partial agonism; also recorded: Partial Agonist"}
    ]}
  ]
}
